Assay results published in patent US12234221B2, “Pyridine carboxamide compounds for inhibiting NAV1.8” (Lieber Institute, Inc., priority 2018, dated 2025).
pIC50: −log10 of the molar value. “And” between values parts separate entries of the source, which are not always exact repeats. Equal entries are not always repeated. The structures given here were assigned with low confidence; some may be wrong.

Protein sequences, listed by entry. Tags and fused reporters are not part of them.
UniProt Q9Y5Y9, whole entry: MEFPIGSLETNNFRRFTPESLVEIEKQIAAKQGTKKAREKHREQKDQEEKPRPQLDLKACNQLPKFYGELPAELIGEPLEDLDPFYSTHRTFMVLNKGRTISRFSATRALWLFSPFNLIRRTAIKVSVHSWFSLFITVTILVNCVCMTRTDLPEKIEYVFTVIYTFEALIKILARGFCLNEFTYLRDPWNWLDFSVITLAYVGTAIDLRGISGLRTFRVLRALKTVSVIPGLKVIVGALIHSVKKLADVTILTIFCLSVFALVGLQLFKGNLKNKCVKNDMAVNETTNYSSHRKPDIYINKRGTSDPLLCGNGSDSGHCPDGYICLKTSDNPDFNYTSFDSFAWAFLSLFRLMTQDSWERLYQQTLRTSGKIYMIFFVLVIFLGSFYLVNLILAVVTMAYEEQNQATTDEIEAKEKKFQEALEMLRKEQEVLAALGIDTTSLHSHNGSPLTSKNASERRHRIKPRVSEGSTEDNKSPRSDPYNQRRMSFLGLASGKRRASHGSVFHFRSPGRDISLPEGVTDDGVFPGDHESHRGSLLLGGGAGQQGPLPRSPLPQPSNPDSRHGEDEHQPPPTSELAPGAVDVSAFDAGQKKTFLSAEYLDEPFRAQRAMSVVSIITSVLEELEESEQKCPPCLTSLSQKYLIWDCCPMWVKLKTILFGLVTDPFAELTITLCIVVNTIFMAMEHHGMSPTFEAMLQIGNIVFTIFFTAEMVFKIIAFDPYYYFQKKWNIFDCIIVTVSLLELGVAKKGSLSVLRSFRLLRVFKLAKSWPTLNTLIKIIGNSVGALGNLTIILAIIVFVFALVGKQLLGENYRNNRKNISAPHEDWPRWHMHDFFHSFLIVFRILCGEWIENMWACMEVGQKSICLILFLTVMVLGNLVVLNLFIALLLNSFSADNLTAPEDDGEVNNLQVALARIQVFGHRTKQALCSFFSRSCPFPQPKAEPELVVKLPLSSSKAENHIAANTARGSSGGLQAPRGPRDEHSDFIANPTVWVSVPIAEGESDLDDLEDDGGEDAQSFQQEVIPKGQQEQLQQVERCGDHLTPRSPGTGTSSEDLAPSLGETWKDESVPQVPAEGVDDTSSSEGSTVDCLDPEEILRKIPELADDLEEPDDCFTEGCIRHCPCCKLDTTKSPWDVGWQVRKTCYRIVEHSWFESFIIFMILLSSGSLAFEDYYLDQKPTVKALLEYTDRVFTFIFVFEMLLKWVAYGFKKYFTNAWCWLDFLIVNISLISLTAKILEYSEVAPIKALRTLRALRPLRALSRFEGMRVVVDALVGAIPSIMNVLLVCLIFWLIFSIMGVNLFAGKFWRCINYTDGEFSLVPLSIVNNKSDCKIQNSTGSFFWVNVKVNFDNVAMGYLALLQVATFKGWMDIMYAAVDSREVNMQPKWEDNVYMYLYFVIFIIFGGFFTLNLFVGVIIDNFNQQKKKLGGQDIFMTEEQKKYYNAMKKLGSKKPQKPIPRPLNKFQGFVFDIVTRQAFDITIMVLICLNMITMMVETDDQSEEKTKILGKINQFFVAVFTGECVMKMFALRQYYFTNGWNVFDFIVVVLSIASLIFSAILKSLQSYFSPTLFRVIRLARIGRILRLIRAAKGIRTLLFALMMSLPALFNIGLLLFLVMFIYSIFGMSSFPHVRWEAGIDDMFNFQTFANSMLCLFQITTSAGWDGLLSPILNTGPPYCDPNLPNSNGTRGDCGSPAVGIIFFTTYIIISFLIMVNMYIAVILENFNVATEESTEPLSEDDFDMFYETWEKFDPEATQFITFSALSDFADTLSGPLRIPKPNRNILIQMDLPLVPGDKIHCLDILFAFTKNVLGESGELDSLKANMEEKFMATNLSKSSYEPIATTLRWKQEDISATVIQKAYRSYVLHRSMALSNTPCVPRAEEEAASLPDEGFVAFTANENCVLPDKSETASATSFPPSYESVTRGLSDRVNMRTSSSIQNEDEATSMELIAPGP

Biological target: human Nav1.8 (hNav1.8) ion channel (Homo sapiens, UniProt Q9Y5Y9)
Assay: Nav1.8 channel inhibition, estimated IC50 (one or more of: fluorescence inhibition assay, PatchXpress, IonFlux HT automated patch clamp)
Details: read-out: Activity range (estimated IC50); HEK293 cells stably expressing hNav1.8; method used per compound not stated
Method: The ability of pyridine carboxamide derivatives exemplified above to inhibit the Nav1.8 channel was determined using one or more of the methods described below.
HEK Nav1.8 β1/β2 Stably Expressing Cell Line
A HEK293 cell line stably expressing the human Nav1.8 (hNav1.8) ion channel with β1/β2 subunits was constructed. The cell line is suitable for IC50 determination in fluorescence and electrophysiological based assays. It is also suitable to form mechanism of action pharmacology studies in electrophysiological assays. […]
Nav 1.8 Fluorescence Inhibition Assay […]
On the day of assay, plates were washed to remove cell culture media using 2K EBSS buffer (135 mM NaCl, 2 mM KCl, 5 mM Glucose, 2 mM CaCl2), 1 mM MgCl2, 10 mM HEPES, pH 7.4). […] Plates are the transferred to a fluorescence plate reader (FLIPR™, Molecular Devices) for fluorescence measurement using an excitation wavelength of 490 nm and an emission wavelength of 565 nm. […] The peak change in fluorescence relative to negative and positive control wells was calculated and fit with a logistic equation to determine IC50. […]
HEK-Nav1.8 β1/β2 cells were recorded in whole cell patch-clamp using the PatchXpress automated patch clamp platforms (Molecular Devices). […]
Nav1.8 channel variants were evaluated using Protocol 1 (FIG. 2) in which cells were initially voltage clamped at a holding potential of −100 mV to maintain Nav1.8 in a closed resting state. […]

With O=C(Nc1ccnc(Cl)c1)c1cc(C(F)(F)F)cnc1Oc1ccc(OC(F)(F)F)cc1Cl the pIC50 was < 6.00 and 6.00 to 6.30.
